Values of other authors, collected in US20070270392A1, “Use of a Cyclopentenone Prostaglandin for Delaying the Onset and/or Preventing the Continuation of Labour” (Imperial College Innovations Limited, priority 2003, published 2007).
At least one structure is not confirmed: it was looked up by name or label, or the drawing left a doubt.

Tested on: adipogenesis
Conditions: cited from earlier work

Cc1c(C)c2c(c(C)c1O)CCC(C)(COc1ccc(CC3SC(=O)NC3=O)cc1)O2 (stereo not shown) [troglitazone]
Doses inducing expression of adipogenic markers: 5 to 10 µM
